Patent publication US9783578B2 (AURIGENE DISCOVERY TECHNOLOGIES LIMITED, priority 2010, dated 2017)
Strings that start with PEPTIDE1 are HELM notation: dots part the residues, brackets hold end groups and non-standard residues.

Assay: general procedure: Fmoc solid-phase peptide synthesis; CLEAR-Amide resin (100-200 mesh, 0.4-0.49 mmol/g); Rink-Amide MBHA resin (100-200 mesh, 0.66 mmol/g); HBTU/NMM (automated); DIC/HOBT (manual)
Settings: whole synthesis

Substance	crude yield	final HPLC purity (HPLC method 1)	further results
PEPTIDE1{S.N.T.S.E.S.F.[Lys-open].F.R.V.T.Q.L.A.P.K.A.Q.I.K.E.[am]}|PEPTIDE2{S.N.T.S.E.S.F}$PEPTIDE1,PEPTIDE2,8:R3-7:R2$$$V2.0	89%	96.6%	–
SNQTDK (SNQTDK) VLNWYRM LAPKAQIKE-NH2 (SNQTDKVLNWYRMLAPKAQIKE; branched lysine side chain peptide; C-terminal amide; Branched peptide Sequence with NH2 modified C terminal and branch amino acid sequence at Lys6 residue; branched amino acid sequence SNQTDK attached to the Lys6 residue)	50%	94%	–
FRVTQK(SNTSESF)FRVTQLAPKAQIKE-NH2 (FRVTQKFRVTQLAPKAQIKE; branched lysine; C-terminal amide; Branched at LYS6 with Seq ID 4 and C terminal modified with NH2; branched amino acid sequence, Seq ID 4 attached to the Lys6 residue; C terminal modified with NH2)	74%	97.6%	–
Ac-SNTSESF-NH2	70%	96%	–
CGAISLAPKAQIKE-NH2	–	–	final HPLC purity (HPLC method 1, hydrocarbon staple, sequence written open): 95.4%; crude yield (hydrocarbon staple, sequence written open): 63%
SNTSESF-NH2	69%	–	final HPLC purity (HPLC method 2): 94.4%
SNQTDKLAAFPEDSQPGQD-NH2 (C-terminal amide; C terminal modified with NH2)	65%	96%	–
FRVTQK(SNTSESF)FRVTQAhxLAPKAQIKE-NH2	70%	95.2%	–
SNQTDK (SNQTDK) FRVTQ LAPKAQIKE-NH2 (SNQTDKFRVTQLAPKAQIKE; branched lysine; C-terminal amide; Branched at LYS6 with a peptide of sequence SNQTDK and C terminal modified with NH2; Branched amino acid sequence SNQTDK attached to the Lys6 residue)	70%	95%	–
EKIQAKPAYWNLVK(KDTQNS)DTQNS (EKIQAKPAYWNLVKDTQNS; branched lysine side chain peptide; Branched peptide Sequence with NH2 modified C terminal and branch amino acid sequence attached to the Lys14 residue; branch amino acid sequence KDTQNS attached to the Lys14 residue; C terminal modified with NH2)	70%	–	–
SNTSESFK(SNQTDK)FRVTQK(LAP)AQIKE-NH2	65%	–	final HPLC purity (HPLC method 3): 95.4%
EDRSQPGQDCR-NH2	74%	94.4%	–
SNTSESFK(SNQTDK)FRVTQLAPKAQIKE-NH2	70%	93%	–
